Reference: publication PMC7112954
These are yes or no findings as the source states them, for the method shown. In cells and extracts the contact can be indirect. Some entries that bind do so weakly or less than the wild type. For some assays here: Sequences can lack the tags named with a protein.

Amino acid sequences for entries named in this document (tags omitted).
UniProt P46937: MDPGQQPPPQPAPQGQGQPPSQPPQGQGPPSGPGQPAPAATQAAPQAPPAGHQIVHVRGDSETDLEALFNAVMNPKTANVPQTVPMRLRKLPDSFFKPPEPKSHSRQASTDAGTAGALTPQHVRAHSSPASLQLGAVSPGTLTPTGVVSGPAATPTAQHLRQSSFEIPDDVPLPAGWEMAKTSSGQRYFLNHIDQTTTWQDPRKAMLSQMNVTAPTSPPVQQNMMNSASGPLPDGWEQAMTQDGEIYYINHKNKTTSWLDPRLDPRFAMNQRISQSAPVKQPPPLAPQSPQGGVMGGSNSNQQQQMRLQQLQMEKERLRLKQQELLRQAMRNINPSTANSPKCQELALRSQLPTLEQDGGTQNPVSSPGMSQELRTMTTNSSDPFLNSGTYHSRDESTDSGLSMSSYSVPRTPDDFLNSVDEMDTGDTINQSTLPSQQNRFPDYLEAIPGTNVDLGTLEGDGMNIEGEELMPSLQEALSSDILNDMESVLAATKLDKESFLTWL
UniProt P35222: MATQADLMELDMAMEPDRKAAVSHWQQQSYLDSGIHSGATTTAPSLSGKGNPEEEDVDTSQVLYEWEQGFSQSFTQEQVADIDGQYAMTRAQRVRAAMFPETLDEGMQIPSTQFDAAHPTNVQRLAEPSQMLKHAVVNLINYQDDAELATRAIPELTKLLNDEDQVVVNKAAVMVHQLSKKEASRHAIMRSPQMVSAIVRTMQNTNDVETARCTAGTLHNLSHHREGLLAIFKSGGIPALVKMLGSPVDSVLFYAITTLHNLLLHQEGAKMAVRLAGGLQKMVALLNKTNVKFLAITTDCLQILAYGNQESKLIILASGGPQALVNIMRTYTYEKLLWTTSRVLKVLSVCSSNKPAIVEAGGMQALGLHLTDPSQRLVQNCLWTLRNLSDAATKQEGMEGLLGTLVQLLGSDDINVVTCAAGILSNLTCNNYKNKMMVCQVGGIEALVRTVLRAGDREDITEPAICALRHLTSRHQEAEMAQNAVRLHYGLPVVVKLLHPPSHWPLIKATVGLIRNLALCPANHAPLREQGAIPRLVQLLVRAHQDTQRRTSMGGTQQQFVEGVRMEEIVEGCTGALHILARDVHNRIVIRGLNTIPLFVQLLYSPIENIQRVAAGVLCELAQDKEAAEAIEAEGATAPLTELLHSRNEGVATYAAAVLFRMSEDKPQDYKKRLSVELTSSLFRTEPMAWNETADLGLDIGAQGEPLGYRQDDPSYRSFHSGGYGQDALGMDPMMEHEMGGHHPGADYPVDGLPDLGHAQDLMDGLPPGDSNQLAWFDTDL
UniProt P46938: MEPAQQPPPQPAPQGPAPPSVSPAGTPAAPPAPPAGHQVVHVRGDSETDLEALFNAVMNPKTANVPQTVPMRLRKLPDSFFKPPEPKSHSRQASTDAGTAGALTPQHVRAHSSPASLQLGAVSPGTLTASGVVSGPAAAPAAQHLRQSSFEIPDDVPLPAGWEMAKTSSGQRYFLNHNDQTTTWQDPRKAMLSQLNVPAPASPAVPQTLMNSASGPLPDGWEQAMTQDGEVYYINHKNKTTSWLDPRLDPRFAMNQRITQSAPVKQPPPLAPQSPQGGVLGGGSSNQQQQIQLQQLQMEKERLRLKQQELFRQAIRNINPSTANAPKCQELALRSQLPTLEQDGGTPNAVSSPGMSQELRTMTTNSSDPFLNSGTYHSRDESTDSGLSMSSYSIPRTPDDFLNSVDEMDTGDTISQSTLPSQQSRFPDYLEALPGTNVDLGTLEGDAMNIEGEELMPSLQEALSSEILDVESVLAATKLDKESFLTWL

T1: NFATc1-Flag (from plasmid pcDNA3.0-NFATc1-Flag) (UniProt O95644)
T1 sequence: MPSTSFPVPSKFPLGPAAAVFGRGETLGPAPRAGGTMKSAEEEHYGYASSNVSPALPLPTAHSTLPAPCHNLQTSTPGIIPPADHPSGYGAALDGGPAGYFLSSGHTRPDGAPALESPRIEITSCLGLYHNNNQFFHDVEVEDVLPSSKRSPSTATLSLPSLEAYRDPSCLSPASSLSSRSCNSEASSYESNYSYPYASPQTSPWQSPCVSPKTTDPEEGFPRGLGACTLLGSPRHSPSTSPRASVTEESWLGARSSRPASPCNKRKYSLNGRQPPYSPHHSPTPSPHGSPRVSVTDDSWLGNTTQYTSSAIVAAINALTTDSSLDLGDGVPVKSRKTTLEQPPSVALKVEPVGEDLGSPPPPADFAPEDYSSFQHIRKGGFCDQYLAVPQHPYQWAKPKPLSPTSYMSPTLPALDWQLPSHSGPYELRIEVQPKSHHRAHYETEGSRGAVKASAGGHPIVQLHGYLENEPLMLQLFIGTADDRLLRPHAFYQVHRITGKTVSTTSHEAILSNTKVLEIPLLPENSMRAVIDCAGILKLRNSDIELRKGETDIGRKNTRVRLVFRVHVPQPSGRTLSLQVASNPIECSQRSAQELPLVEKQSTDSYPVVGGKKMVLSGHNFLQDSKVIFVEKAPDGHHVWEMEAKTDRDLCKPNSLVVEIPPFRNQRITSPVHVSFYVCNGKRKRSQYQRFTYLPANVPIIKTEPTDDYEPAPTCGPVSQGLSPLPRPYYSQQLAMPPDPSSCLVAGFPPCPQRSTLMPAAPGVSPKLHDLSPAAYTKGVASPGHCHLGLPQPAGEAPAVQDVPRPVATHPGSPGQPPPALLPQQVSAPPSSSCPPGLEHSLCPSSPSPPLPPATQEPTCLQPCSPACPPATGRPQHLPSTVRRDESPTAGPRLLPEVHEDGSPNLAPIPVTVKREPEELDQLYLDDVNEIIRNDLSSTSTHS


Assays:
[1] = molecular target: T1, NFATc1-Flag (from plasmid pcDNA3.0-NFATc1-Flag); assay: co-IP; IP of HEK293T cell lysates with the indicated expression constructs (NFATc1-Flag, YAP-HA, β-catenin-Myc, two or all three together); cells lysed in RIPA buffer with protease inhibitors; Western blot; cells treated with shaking (FSS), Yoda1 (40 μM, 4 hr), CsA or Gd3+
[2] = molecular target: Ppp3ca (calcineurin catalytic subunit), endogenous (mouse (endogenous in primary BMSCs)) (UniProt P63328); assay: co-IP; IP of endogenous Ppp3ca from mouse primary BMSC lysates; IP with IgG as negative control; Western blot for Nfatc1, Yap1 and Ctnnb1; cells treated with Yoda1 or CsA

binding [1] | binding [2] | Molecule
binds | – | YAP-HA (HA-tagged YAP1, from plasmid pcDNA3.0-YAP-HA) (from UniProt P46937 1-504)
binds | – | β-catenin-Myc (from plasmid pcDNA3.0-β-catenin-Myc) (from UniProt P35222 1-781)
– | binds | Yap1, endogenous (from UniProt P46938 1-488)
– | binds | Ctnnb1 (β-catenin), endogenous (from UniProt Q02248 1-781)
– | binds | Nfatc1, endogenous (protein, UniProt O88942 1-717) MPNTSFPVPSKFPLGPPAAVCGSGETLRPAPPSGGTMKAAEEEHYSYVSPSVTSTLPLPTAHSALPAACHDLQTSTPGISAVPSANHPPSYGGAVDSGPSGYFLSSGNTRPNGAPTLESPRIEITSYLGLHHGSGQFFHDVEVEDVLPSCKRSPSTATLHLPSLEAYRDPSCLSPASSLSSRSCNSEASSYESNYSYPYASPQTSPWQSPCVSPKTTDPEEGFPRSLGACHLLGSPRHSPSTSPRASITEESWLGARGSRPTSPCNKRKYSLNGRQPSCSPHHSPTPSPHGSPRVSVTEDTWLGNTTQYTSSAIVAAINALTTDSTLDLGDGVPIKSRKTALEHAPSVALKVEPAGEDLGTTPPTSDFPPEEYTFQHLRKGAFCEQYLSVPQASYQWAKPKSLSPTSYMSPSLPALDWQLPSHSGPYELRIEVQPKSHHRAHYETEGSRGAVKASAGGHPIVQLHGYLENEPLTLQLFIGTADDRLLRPHAFYQVHRITGKTVSTTSHEIILSNTKVLEIPLLPENNMRAIIDCAGILKLRNSDIELRKGETDIGRKNTRVRLVFRVHIPQPNGRTLSLQVASNPIECSQRSAQELPLVEKQSTDSYPVIGGKKMVLSGHNFLQDSKVIFVEKAPDGHHVWEMEAKTDRDLCKPNSLVVEIPPFRNQRITSPAQVSFYVCNGKRKRSQYQRFTYLPANGNSVFLTLSSESELRGGFY
